PMC11679285
These are yes or no findings as the source states them, for the method shown. In cells and extracts the contact can be indirect. Binding calls can cover weak binding; strength is not graded here.

Biological target: tumor necrosis factor receptor 1 (TNFR1) (human (endogenous in MCF7))
Test: co-IP; MCF7 lysate in NETN buffer, immunoprecipitation with a TNFR1 antibody, western blot; cells treated with or without 10 uM jacaranone for 3 h, then TNFα (20 ng/mL) for 0.5 h

B1: TNFR1-associated death domain protein (TRADD) (protein, UniProt Q15628 1-312)
chain: MAAGQNGHEEWVGSAYLFVESSLDKVVLSDAYAHPQQKVAVYRALQAALAESGGSPDVLQMLKIHRSDPQLIVQLRFCGRQPCGRFLRAYREGALRAALQRSLAAALAQHSVPLQLELRAGAERLDALLADEERCLSCILAQQPDRLRDEELAELEDALRNLKCGSGARGGDGEVASAPLQPPVPSLSEVKPPPPPPPAQTFLFQGQPVVNRPLSLKDQQTFARSVGLKWRKVGRSLQRGCRALRDPALDSLAYEYEREGLYEQAFQLLRRFVQAEGRRATLQRLVEALEENELTSLAEDLLGLTDPNGGLA
binding: binds
